Some results were stated once for a whole list of compounds, not compound by compound. Some ranges recur; such a range may be that of the whole group of compounds.
Experiments:
serum testosterone level = assay: In vivo inhibition of testosterone production; design: species or system rat; settings: male rats, 3 hours after a 30 mg/kg oral dose, vs vehicle-dosed controls
Description: In vivo Inhibition of Testosterone Production
Male rats aged 8 to 10 weeks old were dosed orally with compounds at 10 or 30 mg/kg. Blood samples were drawn at 0.5, 3, 8, and 24 hours and were processed to plasma samples. Samples were analyzed for compound levels by LC-MS/MS method and for testosterone levels with an ELISA performed as per manufacturer's protocol (Parameter Testosterone Assay, Cat. No. KGE010, R&D systems; http://www.mdsystems.com/pdf/KGE010.pdf). The serum testosterone level was calculated from standards using GraphPad® Prism software and % inhibition at a given time was calculated by comparing the testosterone level in vehicle control animals at the same time of day.

[1] = system: prostate and seminal vesicle weights; assay: In vivo reduction of prostate and seminal vesicle weights; design: species or system rat; settings: male rats
Description: In vivo Reduction of Prostate and Seminal Vesicle Weights Male rats aged 8 to 10 weeks old (5 animals per group) were dosed orally with compounds once or twice a day at 12-hour intervals for 14 days. On day 14 the animals were euthanized and organs were surgically removed for wet weight determination including the prostate, seminal vesicles and testes.

[2] = 10 mg/kg orally twice a day for 14 days

`CC(O)(c1ccncc1)c1nc(-c2ccc(F)cc2)no1` (stereo not shown) [Example 34, 1-(3-(4-Fluorophenyl)-1,2,4-oxadiazol-5-yl)-1-(pyridin-4-yl)ethanol] was tested, and the “decrease of serum testosterone levels” value (serum testosterone level) was 85-95% and the “reduction of seminal vesicle weight” value ([1]; 30 mg/kg orally twice a day for 14 days) was 50-70%.

With `CC(O)(c1ccncc1)c1cnc(-c2ccc(F)cc2)s1` (racemic) [Example 7, 1-(2-(4-Fluorophenyl)thiazol-5-yl)-1-(pyridin-4-yl)ethanol] the “reduction of prostate weight” value [1, 2] was 20 to 30% and the “reduction of seminal vesicle weight” value [1, 2] was 30 to 50%.

— US8809372B2, “Pyridine derivatives” (Endo Pharmaceuticals, Inc., priority 2011, dated 2014)
